Counter-ions that a name gives are not always drawn. This is one part of the list. The calls rarely recur for the same compound in another form.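 Kinases were expressed as nanoluciferase fusions in K562 cells and luminescence was read every 4 h between 2 and 18 h as percent of control, DMSO set to 100% and a positive control to 0%. A time point counts as decreased when the signal drops significantly (2 sigma). The hit call is the authors' own, does not follow from the count of time points alone, and its rule is not shown.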
How the values were obtained:
Assay in all cases: number of time points (of 5) at which kinase-Nluc abundance scored as decreased, DMSO-normalised (count); higher = more persistent destabilization
Settings in all cases: K562; 2-18 h
LMTK2 = LMTK2 (UniProt Q8IWU2)
LYN = LYN (UniProt P07948)
MAP2K1 = MAP2K1 (UniProt Q02750)
MAP2K2 = MAP2K2 (UniProt P36507)
MAP4K2 = MAP4K2 (UniProt Q12851)
MAPK1 = MAPK1 (UniProt P28482)
MAPK4 = MAPK4 (UniProt P31152)
MAPKAPK2 = MAPKAPK2 (UniProt P49137)
MKNK1 = MKNK1 (UniProt Q9BUB5)
NTRK2 = NTRK2 (UniProt Q16620)

Sequences of proteins named here, by UniProt entry; tags and fusion partners are left off. A change or cut given only in a name is not applied to a line headed by its entry.
UniProt Q8IWU2: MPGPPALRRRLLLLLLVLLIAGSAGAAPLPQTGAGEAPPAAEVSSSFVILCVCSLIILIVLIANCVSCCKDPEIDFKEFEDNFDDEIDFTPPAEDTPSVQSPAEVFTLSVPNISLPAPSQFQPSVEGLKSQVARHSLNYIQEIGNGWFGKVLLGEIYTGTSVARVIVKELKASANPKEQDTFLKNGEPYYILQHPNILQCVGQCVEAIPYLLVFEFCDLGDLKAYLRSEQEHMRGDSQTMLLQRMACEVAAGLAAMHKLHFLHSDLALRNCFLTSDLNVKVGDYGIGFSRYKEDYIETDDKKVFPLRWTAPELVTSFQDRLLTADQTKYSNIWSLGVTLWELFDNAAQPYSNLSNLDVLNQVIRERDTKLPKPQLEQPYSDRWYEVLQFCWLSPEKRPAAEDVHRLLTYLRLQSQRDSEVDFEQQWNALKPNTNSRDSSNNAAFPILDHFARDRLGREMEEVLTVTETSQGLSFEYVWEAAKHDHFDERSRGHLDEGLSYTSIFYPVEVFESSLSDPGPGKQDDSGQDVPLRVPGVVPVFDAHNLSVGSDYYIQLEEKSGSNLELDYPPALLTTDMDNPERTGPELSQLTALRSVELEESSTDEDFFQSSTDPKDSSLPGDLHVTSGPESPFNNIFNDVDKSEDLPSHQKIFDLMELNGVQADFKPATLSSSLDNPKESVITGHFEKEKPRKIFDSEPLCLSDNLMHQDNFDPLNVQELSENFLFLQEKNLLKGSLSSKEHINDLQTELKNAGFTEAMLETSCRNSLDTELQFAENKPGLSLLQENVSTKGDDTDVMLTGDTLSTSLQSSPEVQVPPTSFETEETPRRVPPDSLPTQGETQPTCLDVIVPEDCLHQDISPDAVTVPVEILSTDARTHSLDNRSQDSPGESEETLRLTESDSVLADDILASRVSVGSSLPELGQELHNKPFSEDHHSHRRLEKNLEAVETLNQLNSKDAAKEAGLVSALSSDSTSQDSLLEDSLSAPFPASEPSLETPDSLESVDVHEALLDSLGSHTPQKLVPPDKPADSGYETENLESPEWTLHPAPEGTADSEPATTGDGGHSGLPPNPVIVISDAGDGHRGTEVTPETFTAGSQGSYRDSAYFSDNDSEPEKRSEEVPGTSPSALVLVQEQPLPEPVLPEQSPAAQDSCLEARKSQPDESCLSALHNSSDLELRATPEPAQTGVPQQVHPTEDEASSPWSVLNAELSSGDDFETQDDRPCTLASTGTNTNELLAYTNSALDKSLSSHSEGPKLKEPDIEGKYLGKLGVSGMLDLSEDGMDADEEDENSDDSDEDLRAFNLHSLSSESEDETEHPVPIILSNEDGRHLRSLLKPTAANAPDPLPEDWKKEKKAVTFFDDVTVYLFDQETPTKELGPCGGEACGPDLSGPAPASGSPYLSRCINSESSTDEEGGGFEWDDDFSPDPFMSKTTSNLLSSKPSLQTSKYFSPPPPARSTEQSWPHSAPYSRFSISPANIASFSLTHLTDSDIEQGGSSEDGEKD
UniProt P07948: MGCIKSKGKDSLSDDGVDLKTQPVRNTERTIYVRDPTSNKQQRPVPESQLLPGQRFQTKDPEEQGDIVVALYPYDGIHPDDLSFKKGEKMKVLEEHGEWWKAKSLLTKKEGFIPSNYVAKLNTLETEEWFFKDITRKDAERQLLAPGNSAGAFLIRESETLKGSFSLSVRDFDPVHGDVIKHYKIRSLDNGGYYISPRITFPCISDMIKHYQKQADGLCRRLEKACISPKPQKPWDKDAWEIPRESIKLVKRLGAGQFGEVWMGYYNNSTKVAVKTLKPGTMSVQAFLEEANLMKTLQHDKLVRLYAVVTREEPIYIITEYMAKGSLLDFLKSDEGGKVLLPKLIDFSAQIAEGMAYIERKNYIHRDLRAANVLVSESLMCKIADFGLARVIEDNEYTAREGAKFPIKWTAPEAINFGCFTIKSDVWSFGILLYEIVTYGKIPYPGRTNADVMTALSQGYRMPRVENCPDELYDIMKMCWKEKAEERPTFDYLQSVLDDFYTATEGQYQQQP
UniProt Q12851: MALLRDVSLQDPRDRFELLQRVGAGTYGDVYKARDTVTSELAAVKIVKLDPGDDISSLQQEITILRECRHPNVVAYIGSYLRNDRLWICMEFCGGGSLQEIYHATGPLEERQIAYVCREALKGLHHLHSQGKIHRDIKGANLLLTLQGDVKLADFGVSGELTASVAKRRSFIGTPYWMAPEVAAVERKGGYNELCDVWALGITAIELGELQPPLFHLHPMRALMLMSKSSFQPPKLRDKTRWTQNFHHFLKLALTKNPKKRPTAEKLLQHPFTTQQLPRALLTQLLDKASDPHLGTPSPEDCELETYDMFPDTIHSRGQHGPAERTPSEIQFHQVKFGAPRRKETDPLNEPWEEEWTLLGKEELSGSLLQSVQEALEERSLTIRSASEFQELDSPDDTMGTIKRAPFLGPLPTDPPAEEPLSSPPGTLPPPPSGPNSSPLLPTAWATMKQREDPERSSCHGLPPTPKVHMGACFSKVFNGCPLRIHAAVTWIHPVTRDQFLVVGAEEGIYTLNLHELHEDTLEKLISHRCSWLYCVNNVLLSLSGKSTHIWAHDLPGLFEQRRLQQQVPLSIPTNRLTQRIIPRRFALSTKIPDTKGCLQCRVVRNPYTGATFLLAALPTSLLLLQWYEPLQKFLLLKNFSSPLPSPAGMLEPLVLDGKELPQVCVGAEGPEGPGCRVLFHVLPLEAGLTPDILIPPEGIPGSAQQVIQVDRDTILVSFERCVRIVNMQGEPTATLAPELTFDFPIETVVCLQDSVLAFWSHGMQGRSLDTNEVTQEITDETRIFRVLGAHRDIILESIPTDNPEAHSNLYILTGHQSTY
UniProt P28482, whole entry: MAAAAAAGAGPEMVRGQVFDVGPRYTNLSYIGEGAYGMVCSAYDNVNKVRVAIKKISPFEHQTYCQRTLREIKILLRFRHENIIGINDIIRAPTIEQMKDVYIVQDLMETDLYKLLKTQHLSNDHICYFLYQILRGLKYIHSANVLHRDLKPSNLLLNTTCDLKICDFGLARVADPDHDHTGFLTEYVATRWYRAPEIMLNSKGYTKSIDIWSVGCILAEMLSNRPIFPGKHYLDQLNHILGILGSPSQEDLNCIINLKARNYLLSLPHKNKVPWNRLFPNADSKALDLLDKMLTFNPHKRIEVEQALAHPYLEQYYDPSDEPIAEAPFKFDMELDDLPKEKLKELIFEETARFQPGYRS
UniProt P31152, whole entry: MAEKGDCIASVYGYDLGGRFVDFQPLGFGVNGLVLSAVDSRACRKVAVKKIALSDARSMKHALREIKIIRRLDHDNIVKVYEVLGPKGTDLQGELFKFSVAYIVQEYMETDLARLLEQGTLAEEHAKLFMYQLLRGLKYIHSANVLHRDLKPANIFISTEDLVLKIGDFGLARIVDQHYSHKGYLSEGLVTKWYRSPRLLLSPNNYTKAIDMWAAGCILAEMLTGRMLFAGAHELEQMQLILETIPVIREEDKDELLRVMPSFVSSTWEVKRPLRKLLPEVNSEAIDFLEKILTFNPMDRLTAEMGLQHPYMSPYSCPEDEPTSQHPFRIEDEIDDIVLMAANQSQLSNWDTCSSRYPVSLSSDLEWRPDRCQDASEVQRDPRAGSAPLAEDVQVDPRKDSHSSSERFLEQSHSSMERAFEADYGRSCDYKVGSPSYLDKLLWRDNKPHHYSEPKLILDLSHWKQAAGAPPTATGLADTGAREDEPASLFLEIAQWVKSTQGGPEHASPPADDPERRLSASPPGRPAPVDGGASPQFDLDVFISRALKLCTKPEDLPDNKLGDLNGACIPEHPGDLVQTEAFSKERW
UniProt P49137, whole entry, looked up: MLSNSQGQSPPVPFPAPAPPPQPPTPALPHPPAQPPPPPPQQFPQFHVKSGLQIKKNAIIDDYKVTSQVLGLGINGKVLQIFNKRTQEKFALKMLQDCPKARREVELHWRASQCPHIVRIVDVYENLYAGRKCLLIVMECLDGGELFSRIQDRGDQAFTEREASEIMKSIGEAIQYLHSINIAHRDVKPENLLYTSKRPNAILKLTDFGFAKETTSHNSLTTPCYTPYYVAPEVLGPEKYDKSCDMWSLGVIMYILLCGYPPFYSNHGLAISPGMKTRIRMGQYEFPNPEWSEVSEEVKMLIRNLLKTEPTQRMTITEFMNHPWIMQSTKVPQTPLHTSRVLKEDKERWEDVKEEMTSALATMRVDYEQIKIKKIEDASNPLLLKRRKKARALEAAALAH
UniProt Q9BUB5: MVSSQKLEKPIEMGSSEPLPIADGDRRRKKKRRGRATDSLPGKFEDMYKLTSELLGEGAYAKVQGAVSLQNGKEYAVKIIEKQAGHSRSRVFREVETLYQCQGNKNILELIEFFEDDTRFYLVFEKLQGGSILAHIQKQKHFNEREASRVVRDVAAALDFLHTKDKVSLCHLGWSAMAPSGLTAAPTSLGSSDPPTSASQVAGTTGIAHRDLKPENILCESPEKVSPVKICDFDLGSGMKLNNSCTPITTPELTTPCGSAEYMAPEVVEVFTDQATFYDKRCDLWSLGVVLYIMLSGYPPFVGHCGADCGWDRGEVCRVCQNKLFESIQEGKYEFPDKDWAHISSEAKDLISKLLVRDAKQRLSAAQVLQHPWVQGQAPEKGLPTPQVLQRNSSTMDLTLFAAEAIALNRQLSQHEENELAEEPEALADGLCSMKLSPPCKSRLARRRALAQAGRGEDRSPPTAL
UniProt Q16620, whole entry, looked up: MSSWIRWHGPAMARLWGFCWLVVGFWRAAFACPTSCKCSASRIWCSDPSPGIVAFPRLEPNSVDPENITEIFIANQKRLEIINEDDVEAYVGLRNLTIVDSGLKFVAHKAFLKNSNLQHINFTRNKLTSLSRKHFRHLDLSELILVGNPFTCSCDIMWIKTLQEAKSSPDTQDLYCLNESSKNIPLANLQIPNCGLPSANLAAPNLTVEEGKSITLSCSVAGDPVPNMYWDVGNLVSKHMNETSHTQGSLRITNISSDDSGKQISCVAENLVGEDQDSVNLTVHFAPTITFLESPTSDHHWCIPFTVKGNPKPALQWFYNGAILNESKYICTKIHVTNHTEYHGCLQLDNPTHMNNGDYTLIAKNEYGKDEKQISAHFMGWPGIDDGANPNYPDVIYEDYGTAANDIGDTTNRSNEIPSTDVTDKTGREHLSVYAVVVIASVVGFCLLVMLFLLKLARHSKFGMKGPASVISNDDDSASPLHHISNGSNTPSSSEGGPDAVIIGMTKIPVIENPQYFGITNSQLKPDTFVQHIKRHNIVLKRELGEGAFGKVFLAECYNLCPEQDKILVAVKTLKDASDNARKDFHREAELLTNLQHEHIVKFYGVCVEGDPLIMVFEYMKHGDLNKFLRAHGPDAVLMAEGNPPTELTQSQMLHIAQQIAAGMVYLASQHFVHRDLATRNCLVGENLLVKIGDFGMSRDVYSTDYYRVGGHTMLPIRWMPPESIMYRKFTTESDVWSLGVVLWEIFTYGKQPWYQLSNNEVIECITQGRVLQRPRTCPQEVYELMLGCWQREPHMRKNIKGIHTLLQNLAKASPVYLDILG

Measured: number of time points

NC(=O)c1cnc(-c2ccc(C3(N)CCC3)cc2)c(-c2ccccc2)c1 (10 µM)
0: all assays above

CC(O)(C#Cc1ccc2c(c1)N(c1nc(N)ncc1Cl)CC2)c1nccs1 (stereo not given) (2.5 µM)
0: all assays above

COc1ccc(Br)cc1NC(=O)Nc1cccc2c1ccn2Cc1ccnc(N)c1 (2.5 µM)
0: all assays above

CN1CCN(c2cc(-c3ccncc3)c(-c3ccc4ccccc4c3)nn2)CC1 (10 µM)
0: all assays above

O=C(O)c1cc(N(Cc2ccccc2O)Cc2cc(O)ccc2O)ccc1O [Lavendustin A] (10 µM)
0: all assays above

N#Cc1cnc2c(Cl)cc(NCc3cn(CCN4CCCCCC4)nn3)cc2c1Nc1ccc(F)c(Cl)c1 [Cot inhibitor-1] (10 µM)
0: all assays above

Sorted by number of heavy atoms (low to high): three of the compounds above.
NC(=O)c1cnc(-c2ccc(C3(N)CCC3)cc2)c(-c2ccccc2)c1 (10 µM)
0: all assays above

CC(O)(C#Cc1ccc2c(c1)N(c1nc(N)ncc1Cl)CC2)c1nccs1 (stereo not given) (2.5 µM)
0: all assays above

O=C(O)c1cc(N(Cc2ccccc2O)Cc2cc(O)ccc2O)ccc1O [Lavendustin A] (10 µM)
0: all assays above

The listing continues.

Nc1ncnc2c1nc(Br)n2[C@@H]1O[C@@H]2COP(=O)(O)O[C@H]2[C@H]1O [8-Bromo-cAMP sodium salt] (10 µM)
0: all assays above

Cn1c(=O)c2c(nc(S(C)(=O)=O)n2C)n(CC#Cc2cccc(O)c2)c1=O (2.5 µM)
2: LMTK2
0: all other assays above

NC(=O)c1ccc(N(C(N)=O)c2c(F)cccc2F)nc1-c1ccc(F)cc1F (10 µM)
0: all assays above

CC(Cc1ccc(O)c(O)c1)C(C)Cc1ccc(O)c(O)c1 (stereo not given) [Nordihydroguaiaretic acid] (2.5 µM)
0: all assays above

COc1c(O)cc2oc(-c3ccc(O)cc3)cc(=O)c2c1O [Hispidulin] (10 µM)
0: all assays above

O=C(NCCO)c1cc(C(=O)NCCO)cc(C(=O)NCCO)c1 (10 µM)
0: all assays above

O=C(O)[C@H]1O[C@@H](Oc2cc3oc(-c4ccc(O)cc4)cc(=O)c3c(O)c2O)[C@H](O)[C@@H](O)[C@@H]1O [Scutellarin] (10 µM)
0: all assays above

COc1ccc2c3n(c(=NC(=O)c4cccnc4)nc2c1OC)CCN3 (2 µM)
0: all assays above

O=C(NCCN1CCOCC1)Nc1nc2ccc(Sc3nnc4ccc(-c5ccc(F)cc5)nn34)cc2s1 (10 µM)
0: all assays above

CC1(N)CCN(c2cccnc2NC(=O)c2nc(-c3ncccc3C(F)(F)F)cnc2N)CC1 [Darovasertib] (10 µM)
0: all assays above

CO[C@H]1CC[C@H](N2C(=O)CNc3ncc(-c4ccc(C(C)(C)O)nc4)nc32)CC1 (2.5 µM)
0: all assays above

Cc1ccc(C)c(OCCn2cc(C(=O)O)c3ccccc32)c1 (10 µM)
0: all assays above

O=c1cc(-c2ccccc2)oc2cc(O[C@@H]3O[C@H](CO[C@@H]4O[C@H](CO)[C@@H](O)[C@H](O)[C@H]4O)[C@@H](O)[C@H](O)[C@H]3O)c(O)c(O)c12 [Oroxin B] (10 µM)
0: all assays above

O=Nc1c(-c2c(O)[nH]c3cc(Br)ccc23)[nH]c2ccccc12 [GSK 3 Inhibitor IX] (2.5 µM)
4: NTRK2
0: all other assays above

CC(C)=CCC/C(C)=C/CC/C(C)=C/C=C/C(C)=C/C(=O)O [Peretinoin] (10 µM)
0: all assays above

C=CC(=O)Nc1ccc(C(=O)Nc2[nH]nc3c2CN(C(=O)N[C@H](CN(C)C)c2ccccc2)C3(C)C)cc1 (10 µM)
2: NTRK2
1: LYN
3: LMTK2
0: all other assays above

Cc1nc[nH]c1CN1CCN(C(=O)N[C@@H](CC(C)C)C(=O)O)[C@@H](Cc2ccccc2)C1=O (10 µM)
0: all assays above

O=c1[nH]ccc2nc(-c3ccc(CN4CCC(c5nc(-c6ccccn6)n[nH]5)CC4)cc3)c(-c3ccccc3)cc12 (10 µM)
0: all assays above

Cn1cc(-c2cc(Oc3cc(F)c(NC(=O)C4(C(=O)Nc5ccccc5)CC4)cc3F)ccn2)cn1 (2.5 µM)
0: all assays above

Cc1cc([C@@H](C)Nc2ccccc2C(=O)O)c2nc(N3CCOCC3)cc(=O)n2c1 (10 µM)
0: all assays above

COc1cc(N2CCOCC2)ccc1Nc1ncc(F)c(Nc2ccccc2NS(C)(=O)=O)n1 (10 µM)
0: all assays above

Cc1c(C)c(NCC(=O)N(C)C2CCN(Cc3ccc(C(N)=O)cc3)CC2)c(C)c(C)c1N (10 µM)
0: all assays above

CNC(=O)c1ccc2c(c1)ncn2-c1ccc(CC(=O)OC(C)(C)C)cc1 (10 µM)
0: all assays above

CCn1c(-c2nonc2N)nc2c(C#CC(C)(C)O)ncc(OC[C@H]3CCCNC3)c21 (10 µM)
0: all assays above

Cc1cc(CSc2ccccc2C(=O)NCCNc2ccc(C(F)(F)F)cc2[N+](=O)[O-])on1 (10 µM)
0: all assays above

Nc1ncc(-c2ccnc(Nc3ccncc3)n2)c(CC2CC2)n1 (10 µM)
3: LMTK2
0: all other assays above

Brc1ccc(CSc2nc3ccccc3o2)cc1 [BMP signaling agonist sb4] (10 µM)
0: all assays above

NC1(C(=O)NCCCn2cc(-c3ccc(OC(F)(F)F)cc3)c3cc(CN4CCN(Cc5c(Cl)cccc5Cl)CC4)ccc32)CCNCC1 (2.5 µM)
2: LYN
0: all other assays above

COc1cc2ncnc(Oc3ccc(CC(=O)Nc4cnn(C(C)C)c4)cc3)c2cc1OC (10 µM)
0: all assays above

COc1ccc(Nc2ncc(C(F)(F)F)c(NC3CC3)n2)cc1OC (10 µM)
1: NTRK2
2: LMTK2
0: all other assays above

Cn1c2cc([S+](C)[O-])sc2c2cnn(Cc3cccc(N)c3)c(=O)c21 (stereo not given) (2.5 µM)
0: all assays above

COc1cc2c(cc1OC)/C(=C/c1ccc(O)cc1)C(=O)N2 (10 µM)
0: all assays above

Cc1cc(C(=O)NOCCO)c(Nc2ccc(I)cc2F)n(C)c1=O (10 µM)
0: all assays above

NCCOc1ccc(Cl)cc1C(=O)Nc1ccc([N+](=O)[O-])cc1Cl [HJC0152 hydrochloride] (2 µM)
0: all assays above

O=C1OC(/C=C/c2ccccc2)=NC/1=C\c1cccnc1 (10 µM)
0: all assays above

Cc1c(C(=O)Nc2ccc(Oc3ccnc4[nH]cc(-c5ccccc5)c34)c(F)c2)c(=O)n(-c2ccc(F)cc2)n1C (10 µM)
0: all assays above

CN1CCC(CNc2ccc3ncc(-c4cccc(OC(F)(F)F)c4)n3n2)CC1 (2.5 µM)
0: all assays above

Nc1[nH]nc2nc(-c3ccc(NS(=O)(=O)c4cc(Cl)ccc4Cl)cc3)cnc12 (10 µM)
0: all assays above

COc1ccc(S(=O)(=O)Nc2cc(-c3c(O)ccc4ccccc34)c(O)c3ccccc23)cc1 (10 µM)
0: all assays above

COCCOCCc1c(C)c2cc(OC)c(O)c(C=O)c2oc1=O (10 µM)
0: all assays above

Cc1nn(C)cc1-c1nc2c(N3CCN(Cc4ccc(Cl)cc4)CC3)c(Cl)cnc2[nH]1 (10 µM)
0: all assays above

From the supplement of paper PMC12823440, “Inhibitors supercharge kinase turnover through native proteolytic circuits” (Nature, 2025)
